# Assay results published in the supplement of paper PMC10032668.
# By UniProt entry, the sequences of proteins in these tests, tags left out.
# ANAPC7, Q9UJX3, UniProt Q9UJX3, whole entry: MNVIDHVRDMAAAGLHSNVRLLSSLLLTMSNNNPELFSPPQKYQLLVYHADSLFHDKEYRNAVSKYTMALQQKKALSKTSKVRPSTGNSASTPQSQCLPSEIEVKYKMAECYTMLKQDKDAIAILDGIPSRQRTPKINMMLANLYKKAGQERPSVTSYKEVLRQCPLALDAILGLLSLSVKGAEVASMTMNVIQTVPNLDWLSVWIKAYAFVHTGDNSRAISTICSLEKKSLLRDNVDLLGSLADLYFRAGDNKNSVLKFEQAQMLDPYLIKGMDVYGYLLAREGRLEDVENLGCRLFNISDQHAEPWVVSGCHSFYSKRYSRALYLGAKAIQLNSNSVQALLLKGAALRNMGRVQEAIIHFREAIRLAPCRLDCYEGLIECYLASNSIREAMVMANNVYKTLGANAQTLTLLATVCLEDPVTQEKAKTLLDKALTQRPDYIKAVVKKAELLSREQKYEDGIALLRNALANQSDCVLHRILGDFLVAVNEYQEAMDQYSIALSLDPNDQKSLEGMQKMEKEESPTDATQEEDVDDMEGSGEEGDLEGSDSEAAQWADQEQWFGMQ
# CAPZB, P47756, UniProt P47756, whole entry: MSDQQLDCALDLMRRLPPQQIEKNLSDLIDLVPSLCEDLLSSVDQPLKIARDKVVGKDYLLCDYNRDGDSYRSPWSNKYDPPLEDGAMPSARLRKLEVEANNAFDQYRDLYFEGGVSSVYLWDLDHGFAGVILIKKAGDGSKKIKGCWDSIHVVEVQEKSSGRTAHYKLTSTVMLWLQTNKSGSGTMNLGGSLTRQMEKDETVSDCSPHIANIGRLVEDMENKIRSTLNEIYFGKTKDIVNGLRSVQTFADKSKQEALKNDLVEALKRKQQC
# MAGOHB, Q96A72, UniProt Q96A72, whole entry: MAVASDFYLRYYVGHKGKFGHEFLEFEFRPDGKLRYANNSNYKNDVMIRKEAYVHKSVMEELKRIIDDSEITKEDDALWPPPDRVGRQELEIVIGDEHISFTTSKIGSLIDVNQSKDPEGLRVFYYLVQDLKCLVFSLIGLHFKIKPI
# U2AF2, P26368, UniProt P26368, whole entry: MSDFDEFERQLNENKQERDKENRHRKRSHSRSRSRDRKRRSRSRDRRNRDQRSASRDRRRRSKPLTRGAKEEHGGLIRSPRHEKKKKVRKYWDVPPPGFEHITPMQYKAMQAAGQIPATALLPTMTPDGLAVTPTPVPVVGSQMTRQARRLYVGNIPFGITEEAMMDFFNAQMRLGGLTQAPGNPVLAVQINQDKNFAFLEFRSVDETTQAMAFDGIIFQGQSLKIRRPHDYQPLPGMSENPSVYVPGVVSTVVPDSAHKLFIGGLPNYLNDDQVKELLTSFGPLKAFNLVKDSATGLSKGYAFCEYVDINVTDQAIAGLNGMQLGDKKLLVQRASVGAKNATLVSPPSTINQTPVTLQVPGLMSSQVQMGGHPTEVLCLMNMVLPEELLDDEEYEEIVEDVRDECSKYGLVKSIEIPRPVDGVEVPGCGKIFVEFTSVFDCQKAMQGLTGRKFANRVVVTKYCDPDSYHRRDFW
# LARP4B, Q92615, UniProt Q92615, whole entry: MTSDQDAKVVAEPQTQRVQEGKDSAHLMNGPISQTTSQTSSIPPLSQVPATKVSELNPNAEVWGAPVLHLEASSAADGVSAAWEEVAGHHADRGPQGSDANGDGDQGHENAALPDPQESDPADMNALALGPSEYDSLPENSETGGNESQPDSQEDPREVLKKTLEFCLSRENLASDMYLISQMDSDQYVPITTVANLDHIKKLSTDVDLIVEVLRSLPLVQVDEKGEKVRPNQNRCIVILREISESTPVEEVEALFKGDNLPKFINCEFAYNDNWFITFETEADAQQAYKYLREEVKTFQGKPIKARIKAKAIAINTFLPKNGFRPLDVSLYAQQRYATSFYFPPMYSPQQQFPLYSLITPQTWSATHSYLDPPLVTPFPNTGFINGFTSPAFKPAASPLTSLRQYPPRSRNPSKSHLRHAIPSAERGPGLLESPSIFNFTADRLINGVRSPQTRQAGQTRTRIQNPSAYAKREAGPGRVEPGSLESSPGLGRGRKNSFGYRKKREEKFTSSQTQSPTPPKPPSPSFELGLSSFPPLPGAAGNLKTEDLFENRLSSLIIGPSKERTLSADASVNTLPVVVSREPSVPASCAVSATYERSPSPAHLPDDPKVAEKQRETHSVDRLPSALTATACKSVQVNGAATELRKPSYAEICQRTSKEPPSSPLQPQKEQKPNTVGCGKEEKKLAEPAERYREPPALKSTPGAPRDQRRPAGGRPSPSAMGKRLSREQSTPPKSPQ
# SNRPG, P62308, UniProt P62308, whole entry: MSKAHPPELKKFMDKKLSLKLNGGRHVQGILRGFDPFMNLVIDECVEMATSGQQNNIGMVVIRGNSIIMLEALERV
# ATXN2, Q99700, UniProt Q99700, whole entry: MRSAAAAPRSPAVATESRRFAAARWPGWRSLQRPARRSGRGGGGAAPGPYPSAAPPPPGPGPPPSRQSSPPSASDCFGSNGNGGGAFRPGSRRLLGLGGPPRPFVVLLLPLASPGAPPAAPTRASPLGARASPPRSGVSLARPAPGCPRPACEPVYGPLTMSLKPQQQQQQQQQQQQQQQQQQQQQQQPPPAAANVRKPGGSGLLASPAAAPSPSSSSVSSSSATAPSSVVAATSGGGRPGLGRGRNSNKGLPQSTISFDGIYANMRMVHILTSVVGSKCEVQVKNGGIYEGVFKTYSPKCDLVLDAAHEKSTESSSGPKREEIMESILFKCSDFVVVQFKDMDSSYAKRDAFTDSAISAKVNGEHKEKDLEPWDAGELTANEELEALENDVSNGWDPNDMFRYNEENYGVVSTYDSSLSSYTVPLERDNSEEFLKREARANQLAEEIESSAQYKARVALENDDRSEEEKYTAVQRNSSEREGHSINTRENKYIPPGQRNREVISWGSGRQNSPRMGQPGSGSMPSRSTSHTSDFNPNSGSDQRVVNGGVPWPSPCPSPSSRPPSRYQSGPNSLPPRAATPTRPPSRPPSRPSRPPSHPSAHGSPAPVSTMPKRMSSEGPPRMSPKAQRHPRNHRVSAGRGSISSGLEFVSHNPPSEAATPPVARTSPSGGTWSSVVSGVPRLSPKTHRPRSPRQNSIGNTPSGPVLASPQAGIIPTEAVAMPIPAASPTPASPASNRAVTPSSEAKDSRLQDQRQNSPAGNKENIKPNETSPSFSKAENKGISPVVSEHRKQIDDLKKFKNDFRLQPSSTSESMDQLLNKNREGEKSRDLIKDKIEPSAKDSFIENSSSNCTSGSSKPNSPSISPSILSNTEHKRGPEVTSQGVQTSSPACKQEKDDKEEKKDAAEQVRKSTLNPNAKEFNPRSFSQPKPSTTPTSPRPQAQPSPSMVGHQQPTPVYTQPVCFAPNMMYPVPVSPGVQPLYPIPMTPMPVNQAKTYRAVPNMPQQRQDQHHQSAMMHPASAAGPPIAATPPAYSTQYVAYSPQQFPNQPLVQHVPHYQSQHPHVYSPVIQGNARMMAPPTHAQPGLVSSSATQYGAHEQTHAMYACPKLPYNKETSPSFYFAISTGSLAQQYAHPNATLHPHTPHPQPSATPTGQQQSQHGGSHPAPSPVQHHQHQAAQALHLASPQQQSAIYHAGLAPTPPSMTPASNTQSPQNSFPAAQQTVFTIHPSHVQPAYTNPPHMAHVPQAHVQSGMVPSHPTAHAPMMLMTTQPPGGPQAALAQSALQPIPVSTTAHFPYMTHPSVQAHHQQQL
# GTF2F1, P35269, UniProt P35269, whole entry: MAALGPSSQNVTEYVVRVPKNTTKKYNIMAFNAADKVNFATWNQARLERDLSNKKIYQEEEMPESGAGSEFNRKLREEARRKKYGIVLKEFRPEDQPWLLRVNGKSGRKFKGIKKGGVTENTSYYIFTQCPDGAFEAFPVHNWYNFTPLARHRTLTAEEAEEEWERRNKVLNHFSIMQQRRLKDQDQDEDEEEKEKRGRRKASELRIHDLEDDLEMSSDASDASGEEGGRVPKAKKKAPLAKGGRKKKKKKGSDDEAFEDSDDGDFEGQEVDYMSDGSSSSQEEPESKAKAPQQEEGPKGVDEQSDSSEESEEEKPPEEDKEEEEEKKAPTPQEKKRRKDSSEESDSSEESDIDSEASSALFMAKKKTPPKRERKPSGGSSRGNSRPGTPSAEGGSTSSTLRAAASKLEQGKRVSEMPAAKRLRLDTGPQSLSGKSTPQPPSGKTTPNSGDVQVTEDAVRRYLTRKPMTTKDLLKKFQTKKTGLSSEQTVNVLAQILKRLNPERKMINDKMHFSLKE
# NDUFA10, O95299, UniProt O95299, whole entry: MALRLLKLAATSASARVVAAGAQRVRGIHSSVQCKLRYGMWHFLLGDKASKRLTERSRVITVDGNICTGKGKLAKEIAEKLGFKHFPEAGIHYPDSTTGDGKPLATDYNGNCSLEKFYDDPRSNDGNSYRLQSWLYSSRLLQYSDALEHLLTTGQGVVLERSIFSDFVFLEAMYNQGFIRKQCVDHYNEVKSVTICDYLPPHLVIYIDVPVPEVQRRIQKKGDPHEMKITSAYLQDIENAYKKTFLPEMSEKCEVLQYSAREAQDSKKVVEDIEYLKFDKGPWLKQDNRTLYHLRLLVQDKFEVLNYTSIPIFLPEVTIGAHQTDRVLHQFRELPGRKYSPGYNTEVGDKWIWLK
# Some of the results follow. The list holds hits alone, and they repeat only in part.
# Tests used:
# Assay in all cases: PRISMA enrichment of interactor (LFQ) in peptide spot vs all other peptide spots (log2 fold change); higher = stronger / more specific binding of the interactor to the peptide
# ANAPC7, Q9UJX3 = target: ANAPC7, Q9UJX3
# Experimental: (§1)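 PRISMA: 15-aa overlapping tiles (offset 8 aa) of 60 microproteins, plus SOS1/GLUT1 control peptides, were spot-synthesized on cellulose membranes in triplicate. Membranes were incubated with benzonase-treated HEK293T lysate, and bound proteins were identified by LC-MS/MS with LFQ. Enrichment is the log2 fold change of each protein in one spot versus all other spots. Only interactors passing the significance cutoff are listed.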
# CAPZB, P47756 = target: CAPZB, P47756
# Experimental: as §1
# CDCA7L, Q96GN5 = target: CDCA7L, Q96GN5
# Experimental: as §1
# CPS1, P31327 = target: CPS1, P31327
# Experimental: as §1
# MAGOHB, Q96A72 = target: MAGOHB, Q96A72
# Experimental: as §1
# MRPL9, Q9BYD2 = target: MRPL9, Q9BYD2
# Experimental: as §1
# NME1-NME2 = target: NME1-NME2
# Experimental: as §1
# PRDX4, Q13162 = target: PRDX4, Q13162
# Experimental: as §1
# RPP30, P78346 = target: RPP30, P78346
# Experimental: as §1
# TAF15, Q92804 = target: TAF15, Q92804
# Experimental: as §1
# TIMM8A, O60220 = target: TIMM8A, O60220
# Experimental: as §1
# TRMU, O75648 = target: TRMU, O75648
# Experimental: as §1
# U2AF2, P26368 = target: U2AF2, P26368
# Experimental: as §1
# WRNIP1, Q96S55 = target: WRNIP1, Q96S55
# Experimental: as §1
# ANKHD1, Q8IWZ3 = target: ANKHD1, Q8IWZ3
# Experimental: as §1
# AP1B1, Q10567 = target: AP1B1, Q10567
# Experimental: as §1
# GEMIN2, O14893 = target: GEMIN2, O14893
# Experimental: as §1
# ITCH, Q96J02 = target: ITCH, Q96J02
# Experimental: as §1
# LARP4B, Q92615 = target: LARP4B, Q92615
# Experimental: as §1
# LAS1L, Q9Y4W2 = target: LAS1L, Q9Y4W2
# Experimental: as §1
# PSIP1, O75475 = target: PSIP1, O75475
# Experimental: as §1
# SDHB, P21912 = target: SDHB, P21912
# Experimental: as §1
# SNF8, Q96H20 = target: SNF8, Q96H20
# Experimental: as §1
# SNRPG, P62308 = target: SNRPG, P62308
# Experimental: as §1
# UBTF, P17480 = target: UBTF, P17480
# Experimental: as §1
# ATXN2, Q99700 = target: ATXN2, Q99700
# Experimental: as §1
# CPSF2, Q9P2I0 = target: CPSF2, Q9P2I0
# Experimental: as §1
# CSNK2A1, P68400 = target: CSNK2A1, P68400
# Experimental: as §1
# GTF2F1, P35269 = target: GTF2F1, P35269
# Experimental: as §1
# MAGT1, Q9H0U3 = target: MAGT1, Q9H0U3
# Experimental: as §1
# MRPL43, Q8N983 = target: MRPL43, Q8N983
# Experimental: as §1
# MRPS5, P82675 = target: MRPS5, P82675
# Experimental: as §1
# NCLN, Q969V3 = target: NCLN, Q969V3
# Experimental: as §1
# NDUFA10, O95299 = target: NDUFA10, O95299
# Experimental: as §1
# NUP188, Q5SRE5 = target: NUP188, Q5SRE5
# Experimental: as §1
# OLA1, Q9NTK5 = target: OLA1, Q9NTK5
# Experimental: as §1
# SSNA1, O43805 = target: SSNA1, O43805
# Experimental: as §1
# STK26, Q9P289 = target: STK26, Q9P289
# Experimental: as §1
# TCEA1, P23193 = target: TCEA1, P23193
# Experimental: as §1
# WDR5, P61964 = target: WDR5, P61964
# Experimental: as §1
binder,measurement,setting,value
MYRFRSQLFTGISAA [IFRD1],PRISMA enrichment of interactor (log2),"ANAPC7, Q9UJX3",7.77
same,PRISMA enrichment of interactor (log2),"CAPZB, P47756",4.87
same,PRISMA enrichment of interactor (log2),"CDCA7L, Q96GN5",8.72
same,PRISMA enrichment of interactor (log2),"CPS1, P31327",5.47
same,PRISMA enrichment of interactor (log2),"MAGOHB, Q96A72",4.41
same,PRISMA enrichment of interactor (log2),"MRPL9, Q9BYD2",5.62
same,PRISMA enrichment of interactor (log2),NME1-NME2,8.94
same,PRISMA enrichment of interactor (log2),"PRDX4, Q13162",5
same,PRISMA enrichment of interactor (log2),"RPP30, P78346",4.32
same,PRISMA enrichment of interactor (log2),"TAF15, Q92804",5.34
same,PRISMA enrichment of interactor (log2),"TIMM8A, O60220",8.32
same,PRISMA enrichment of interactor (log2),"TRMU, O75648",3.85
same,PRISMA enrichment of interactor (log2),"U2AF2, P26368",7.32
same,PRISMA enrichment of interactor (log2),"WRNIP1, Q96S55",4.22
PGLAMEKAEPASQWV [RP11-432J24.5_2],PRISMA enrichment of interactor (log2),"ANKHD1, Q8IWZ3",5.84
same,PRISMA enrichment of interactor (log2),"AP1B1, Q10567",4.96
same,PRISMA enrichment of interactor (log2),"GEMIN2, O14893",4.29
same,PRISMA enrichment of interactor (log2),"ITCH, Q96J02",7.11
same,PRISMA enrichment of interactor (log2),"LARP4B, Q92615",5.37
same,PRISMA enrichment of interactor (log2),"LAS1L, Q9Y4W2",4.68
same,PRISMA enrichment of interactor (log2),"PSIP1, O75475",4.95
same,PRISMA enrichment of interactor (log2),"SDHB, P21912",5.93
same,PRISMA enrichment of interactor (log2),"SNF8, Q96H20",4.68
same,PRISMA enrichment of interactor (log2),"SNRPG, P62308",7.71
same,PRISMA enrichment of interactor (log2),"UBTF, P17480",5.34
ATWTGIQRILQVQLH [TBX5-AS1],PRISMA enrichment of interactor (log2),"ANKHD1, Q8IWZ3",4.81
same,PRISMA enrichment of interactor (log2),"ATXN2, Q99700",5.37
same,PRISMA enrichment of interactor (log2),"CPSF2, Q9P2I0",4.11
same,PRISMA enrichment of interactor (log2),"CSNK2A1, P68400",5.3
same,PRISMA enrichment of interactor (log2),"GTF2F1, P35269",4.2
same,PRISMA enrichment of interactor (log2),"MAGT1, Q9H0U3",4.59
same,PRISMA enrichment of interactor (log2),"MRPL43, Q8N983",5.11
same,PRISMA enrichment of interactor (log2),"MRPS5, P82675",5.76
same,PRISMA enrichment of interactor (log2),"NCLN, Q969V3",5.73
same,PRISMA enrichment of interactor (log2),"NDUFA10, O95299",4.15
same,PRISMA enrichment of interactor (log2),"NUP188, Q5SRE5",5.92
same,PRISMA enrichment of interactor (log2),"OLA1, Q9NTK5",4.66
same,PRISMA enrichment of interactor (log2),"SSNA1, O43805",5.67
same,PRISMA enrichment of interactor (log2),"STK26, Q9P289",5.15
same,PRISMA enrichment of interactor (log2),"TCEA1, P23193",4.01
same,PRISMA enrichment of interactor (log2),"WDR5, P61964",7.08

# 2 entries picked at random from the list so far:
binder,measurement,setting,value
ATWTGIQRILQVQLH [TBX5-AS1],PRISMA enrichment of interactor (log2),"MAGT1, Q9H0U3",4.59
MYRFRSQLFTGISAA [IFRD1],PRISMA enrichment of interactor (log2),"ANAPC7, Q9UJX3",7.77
